# From PubChem BioAssay AID330 (DTP/NCI, 2004)
# The list does not hold the whole screen: it is rich in T/C values a quarter to a half above the control, in often repeated tests (any T/C) and in doses without a T/C. Further doses and runs are listed elsewhere. T/C: endpoint of the treated group in % of that of the vehicle group. Some doses have a count of surviving animals in place of a T/C: the source holds a T/C of zero for them, seemingly a mark for toxic or unscored doses. Some doses without a T/C left all or most animals alive at the check, yet need not have been tolerated: survival well below the control is almost never listed, so the zero probably covers shortened survival too. Counts of survivors are from the toxicity check (mostly the fifth day) where no day follows; animals may have died later. Schedule codes are those of the source, read here as Q, the interval in days (D) or hours (H), X, the number of doses. Where survival is the endpoint, this PubChem deposit counts one and a half times the control or more as active, and values a quarter to a half above the control carry no call in these data; other NCI protocols may use other cut-offs. Some entries were tested several times; the values are given in rising order.
# Test system: P388 leukemia ip, CD2F1 mice, survival T/C
# Experiment: NCI In Vivo Anticancer Drug Screen. Data for tumor model P388 Leukemia (intraperitoneal) in CD2F1 (CDF1) mice
# Settings: T/C endpoint: median survival time, higher T/C = longer survival
# [1] = dose: 200.0 mg/kg/injection, schedule: Q01DX005 (ip), vehicle: saline with Tween-80
# [2] = dose: 200.0 mg/kg/injection, schedule: Q01DX009 (ip), vehicle: saline with Tween-80
# [3] = dose: 240.0 mg/kg/injection, schedule: Q01DX005 (ip), vehicle: saline with Tween-80
# [4] = dose: 100.0 mg/kg/injection, schedule: Q01DX009 (ip), vehicle: saline with Tween-80
# [5] = dose: 200.0 mg/kg/injection, schedule: Q01DX005 (ip), vehicle: Klucel (hydroxypropylcellulose) (HPC)
# [6] = dose: 400.0 mg/kg/injection, schedule: Q04DX002 (ip), vehicle: saline with Tween-80
# [7] = dose: 200.0 mg/kg/injection, schedule: Q01DX009 (ip), vehicle: saline
# [8] = dose: 0.19 mg/kg/injection, schedule: Q01DX009 (ip), vehicle: saline
# [9] = dose: 50.0 mg/kg/injection, schedule: Q01DX009 (ip), vehicle: saline
smiles,measurement,setting,value
CC(C)=CC(=O)OC1C2C(C)=CC(O)C(O)C2(C)C2C3(O)OCC24C(CC(=O)OC14)C(C)C3O (stereo unspecified),T/C,"dose: 0.25 mg/kg/injection, schedule: Q01DX005 (ip), vehicle: distilled water + Tween-80",126 % of control
same,T/C,"dose: 0.38 mg/kg/injection, schedule: Q01DX009 (ip), vehicle: saline with Tween-80",142 % of control
same,T/C,"dose: 0.5 mg/kg/injection, schedule: Q01DX005 (ip), vehicle: distilled water + Tween-80",135 % of control
same,T/C,"dose: 0.62 mg/kg/injection, schedule: Q01DX005 (ip), vehicle: distilled water + Tween-80",141 % of control
same,T/C,"dose: 1.25 mg/kg/injection, schedule: Q01DX005 (ip), vehicle: distilled water + Tween-80",140 % of control
same,T/C,"dose: 1.5 mg/kg/injection, schedule: Q01DX009 (ip), vehicle: saline with Tween-80",133 % of control
same,T/C,"dose: 2.5 mg/kg/injection, schedule: Q01DX005 (ip), vehicle: distilled water + Tween-80",148 % of control
same,T/C,"dose: 3.0 mg/kg/injection, schedule: Q01DX009 (ip), vehicle: saline with Tween-80",133 % of control
same,survivor count,"dose: 10.0 mg/kg/injection, schedule: Q01DX005 (ip), vehicle: distilled water + Tween-80",4 of 5
CN(C)CCCNc1c2c(nc3ccc(Cl)cc13)CCCC2,survivor count,[1],0 of 6
BrCC[Se]c1ccccc1,survivor count,[2],0 of 6
CC(O)/C(=N\Nc1ccccc1)c1nc2ccccc2[nH]c1=O (stereo unspecified),survivor count,"dose: 60.0 mg/kg/injection, schedule: Q01DX005 (ip), vehicle: saline with Tween-80",6 of 6
same,survivor count,[3],5 of 6
CCN(CC)c1ccc2cc(-c3nc4ccccc4[nH]3)c(=O)oc2c1,survivor count,[4],5 of 6
same,survivor count,[2],6 of 6
CCC(C1SC(=S)NC1=O)C1SC(=S)NC1=O (stereo unspecified),survivor count,[1],3 of 5
CCN(CC)C(=S)S[Se](SC(=S)N(CC)CC)(SC(=S)N(CC)CC)SC(=S)N(CC)CC,survivor count,"dose: 200.0 mg/kg/injection, schedule: Q01DX009 (ip), vehicle: Klucel (hydroxypropylcellulose) (HPC)",0 of 6
COc1cc2cnc3c4cc(OC)c(OC)cc4c(O)cc3c2cc1OC,survivor count,"dose: 50.0 mg/kg/injection, schedule: Q01DX005 (ip), vehicle: Klucel (hydroxypropylcellulose) (HPC)",0 of 5
same,survivor count,"dose: 100.0 mg/kg/injection, schedule: Q01DX005 (ip), vehicle: Klucel (hydroxypropylcellulose) (HPC)",3 of 5
same,survivor count,[5],0 of 5
CCn1c2nc(=O)n(C)c(=O)c-2[n+]([O-])c2cc(C)ccc21,survivor count,"dose: 100.0 mg/kg/injection, schedule: Q04DX003 (ip), vehicle: saline with Tween-80",6 of 6
same,survivor count,"dose: 200.0 mg/kg/injection, schedule: Q04DX003 (ip), vehicle: saline with Tween-80",3 of 6
same,survivor count,"dose: 400.0 mg/kg/injection, schedule: Q04DX003 (ip), vehicle: saline with Tween-80",0 of 6
CN(C)c1ccc(Sc2ccc3nc(N)nc(N)c3c2)cc1,T/C,[4],128 % of control
Cc1ccc(S(=O)(=O)n2cccn2)cc1,survivor count,"dose: 12.5 mg/kg/injection, schedule: Q01DX009 (ip), vehicle: other",6 of 6
same,survivor count,"dose: 50.0 mg/kg/injection, schedule: Q01DX009 (ip), vehicle: other",6 of 6
CC(=O)Nc1ncnc2c(C3OC(COC(C)=O)C(OC(C)=O)C3OC(C)=O)[nH]nc12 (stereo unspecified),survivor count,[3],3 of 6
C=C1C(=O)OC2CC(C)C3C(OC(C)=O)CC(OC(C)=O)C3(C)CC12 (stereo unspecified),survivor count,"dose: 100.0 mg/kg/injection, schedule: Q04DX002 (ip), vehicle: saline with Tween-80",5 of 6
same,survivor count,"dose: 200.0 mg/kg/injection, schedule: Q04DX002 (ip), vehicle: saline with Tween-80",0 of 6
same,survivor count,[6],0 of 6
OC1COCCC(O)(CNCc2ccccc2)C1O (stereo unspecified),survivor count,[7],3 of 6
CC(=O)OC1CC(O)CC2=CCC3C4CCC(C(C)(O)C(O)CC5COC(=O)C5C)C4(C)CCC3C21C (stereo unspecified),survivor count,"dose: 128.0 mg/kg/injection, schedule: Q01DX005 (ip), vehicle: distilled water + Tween-80",5 of 5
C=CCOC1CC(C)(O)Cc2cc3c(c(O)c21)C(=O)c1c(O)cc2c(c1C3=O)OC1OC2(C)C(O)C(N(C)C)C1O (stereo unspecified),T/C,"dose: 5.0 mg/kg/injection, schedule: Q01DX009 (ip), vehicle: other",125 % of control
same,survivor count,"dose: 20.0 mg/kg/injection, schedule: Q01DX009 (ip), vehicle: other",6 of 6
CCN(CC)CCNc1c(C)ccc2cccnc12,survivor count,"dose: 100.0 mg/kg/injection, schedule: Q01DX005 (ip), vehicle: saline",1 of 5
same,survivor count,"dose: 200.0 mg/kg/injection, schedule: Q01DX005 (ip), vehicle: saline",0 of 5
CC(=O)NS(=O)(=O)c1ccc(N=NC2C(=O)N(C(=O)c3ccccc3)N=C2C)cc1 (stereo unspecified),survivor count,"dose: 400.0 mg/kg/injection, schedule: Q01DX001 (ip), vehicle: Klucel (hydroxypropylcellulose) (HPC)",6 of 6
CSc1nc(NC2OCC(O)C(O)C2O)c(C=O)c(=O)[nH]1 (stereo unspecified),survivor count,"dose: 120.0 mg/kg/injection, schedule: Q01DX005 (ip), vehicle: saline with Tween-80",5 of 6
same,survivor count,[3],3 of 6
O=C1CC(=O)NP(=O)(Oc2ccccc2)N1,survivor count,"dose: 400.0 mg/kg/injection, schedule: Q04DX002 (ip), vehicle: saline",4 of 6
S=c1nc(-c2ccccn2)c(-c2ccccn2)n[nH]1,T/C,"dose: 100.0 mg/kg/injection, schedule: Q01DX005 (ip), vehicle: saline with Tween-80",127 % of control
CC1=NOC(=O)C1N=Nc1ccc(Br)cc1C (stereo unspecified),survivor count,"dose: 400.0 mg/kg/injection, schedule: Q05DX002 (ip), vehicle: saline with Tween-80",4 of 6
O=c1c2ccccc2ncn1S(=O)(=O)c1ccc(N(CCCl)CCCl)cc1,T/C,[6],133 % of control
O=C(NC(=O)c1c(F)cccc1F)Nc1cc(Cl)c(F)c(Cl)c1F,survivor count,"dose: 15.0 mg/kg/injection, schedule: Q01DX005 (ip), vehicle: Klucel (hydroxypropylcellulose) (HPC)",6 of 6
same,survivor count,"dose: 60.0 mg/kg/injection, schedule: Q01DX005 (ip), vehicle: Klucel (hydroxypropylcellulose) (HPC)",6 of 6
CCCCCCCCCCCCCC[N+]1(CC)CCCCCC1,T/C,"dose: 0.09 mg/kg/injection, schedule: Q01DX009 (ip), vehicle: saline","88, 95, 102, 117 % of control"
same,T/C,[8],"89, 99, 113 % of control"
same,survivor count,[8],6 of 6
same,T/C,"dose: 0.39 mg/kg/injection, schedule: Q01DX009 (ip), vehicle: saline","89, 90, 91, 117, 120 % of control"
same,survivor count,"dose: 0.78 mg/kg/injection, schedule: Q01DX009 (ip), vehicle: saline",3 of 6
same,survivor count,"dose: 1.56 mg/kg/injection, schedule: Q01DX009 (ip), vehicle: saline",2 of 6
same,survivor count,"dose: 3.12 mg/kg/injection, schedule: Q01DX009 (ip), vehicle: saline",2 of 6
same,survivor count,"dose: 6.25 mg/kg/injection, schedule: Q01DX009 (ip), vehicle: saline",0 of 6
same,survivor count,"dose: 12.5 mg/kg/injection, schedule: Q01DX009 (ip), vehicle: saline",0 of 6
same,survivor count,[9],0 of 6
same,survivor count,"dose: 100.0 mg/kg/injection, schedule: Q01DX009 (ip), vehicle: saline",0 of 6
same,survivor count,[7],0 of 6
CCCCOc1ncnc2nc[nH]c12,survivor count,[5],0 of 5
Cc1c2c(C(N)=O)nccc2c(C)c2c1c1ccccc1n2Cc1ccccc1,survivor count,"dose: 6.25 mg/kg/injection, schedule: Q04DX003 (ip), vehicle: distilled water + Tween-80",6 of 6
same,survivor count,"dose: 12.5 mg/kg/injection, schedule: Q04DX003 (ip), vehicle: distilled water + Tween-80",6 of 6
same,survivor count,"dose: 25.0 mg/kg/injection, schedule: Q04DX003 (ip), vehicle: distilled water + Tween-80",6 of 6
same,survivor count,"dose: 50.0 mg/kg/injection, schedule: Q04DX003 (ip), vehicle: distilled water + Tween-80",6 of 6
NC(N)=NCC1CCCCCCN1 (stereo unspecified),survivor count,[9],1 of 6
same,survivor count,[7],3 of 6
COc1cc2cccc(O)c2cc1OC,survivor count,"dose: 100.0 mg/kg/injection, schedule: Q01DX009 (ip), vehicle: other",6 of 6
same,survivor count,"dose: 400.0 mg/kg/injection, schedule: Q01DX009 (ip), vehicle: other",3 of 6
